Reference: article PMC2214798
Results are given in words; binding and its absence hold for the method and conditions named. In cells and extracts the contact can be indirect. Blank lines part the entries; values can stand above or below the binder they belong to.

Assays:
[1] = molecular target: T1, glycogen synthase (GS), skeletal muscle (mouse (endogenous in skeletal muscle)) (UniProt Q9Z1E4); experiment: pull-down; GS of skeletal muscle extracts (WT and RGL kin homozygous mice) pulled down through GST-GN(297–333), before and after α-amylase digestion of glycogen; blot for RGL associated with GS
T1 sequence: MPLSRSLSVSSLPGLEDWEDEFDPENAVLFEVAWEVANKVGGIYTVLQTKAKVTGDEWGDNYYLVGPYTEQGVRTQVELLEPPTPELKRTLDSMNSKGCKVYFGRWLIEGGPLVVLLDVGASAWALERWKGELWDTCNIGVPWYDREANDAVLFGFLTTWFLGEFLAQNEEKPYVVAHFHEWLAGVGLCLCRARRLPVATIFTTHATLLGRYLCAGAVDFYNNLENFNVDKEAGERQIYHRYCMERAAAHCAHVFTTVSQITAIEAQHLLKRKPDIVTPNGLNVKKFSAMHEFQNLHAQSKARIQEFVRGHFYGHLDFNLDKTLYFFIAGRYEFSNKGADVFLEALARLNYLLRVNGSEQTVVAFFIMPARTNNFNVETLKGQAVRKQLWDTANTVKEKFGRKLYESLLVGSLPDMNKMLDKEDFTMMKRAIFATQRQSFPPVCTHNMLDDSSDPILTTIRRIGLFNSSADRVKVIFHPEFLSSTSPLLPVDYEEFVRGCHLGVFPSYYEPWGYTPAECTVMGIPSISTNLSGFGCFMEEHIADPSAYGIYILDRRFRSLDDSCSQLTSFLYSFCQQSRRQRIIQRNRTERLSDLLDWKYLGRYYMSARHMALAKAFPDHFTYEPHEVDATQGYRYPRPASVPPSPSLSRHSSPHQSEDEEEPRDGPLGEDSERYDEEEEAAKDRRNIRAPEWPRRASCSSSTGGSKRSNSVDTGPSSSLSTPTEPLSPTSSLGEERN

[2] = molecular target: T2, RGL, muscle-specific glycogen-targeting subunit of protein phosphatase 1 (wild type, full length) (mouse (endogenous in skeletal muscle)) (UniProt Q99MR9); experiment: co-IP; RGL immunoprecipitated from skeletal muscle extracts of WT, RGL kin heterozygous and homozygous mice with antibodies against the N-terminal 262 residues or the C-terminal 325-1042 amino acids of RGL; Western blots for RGL and GS
T2 sequence: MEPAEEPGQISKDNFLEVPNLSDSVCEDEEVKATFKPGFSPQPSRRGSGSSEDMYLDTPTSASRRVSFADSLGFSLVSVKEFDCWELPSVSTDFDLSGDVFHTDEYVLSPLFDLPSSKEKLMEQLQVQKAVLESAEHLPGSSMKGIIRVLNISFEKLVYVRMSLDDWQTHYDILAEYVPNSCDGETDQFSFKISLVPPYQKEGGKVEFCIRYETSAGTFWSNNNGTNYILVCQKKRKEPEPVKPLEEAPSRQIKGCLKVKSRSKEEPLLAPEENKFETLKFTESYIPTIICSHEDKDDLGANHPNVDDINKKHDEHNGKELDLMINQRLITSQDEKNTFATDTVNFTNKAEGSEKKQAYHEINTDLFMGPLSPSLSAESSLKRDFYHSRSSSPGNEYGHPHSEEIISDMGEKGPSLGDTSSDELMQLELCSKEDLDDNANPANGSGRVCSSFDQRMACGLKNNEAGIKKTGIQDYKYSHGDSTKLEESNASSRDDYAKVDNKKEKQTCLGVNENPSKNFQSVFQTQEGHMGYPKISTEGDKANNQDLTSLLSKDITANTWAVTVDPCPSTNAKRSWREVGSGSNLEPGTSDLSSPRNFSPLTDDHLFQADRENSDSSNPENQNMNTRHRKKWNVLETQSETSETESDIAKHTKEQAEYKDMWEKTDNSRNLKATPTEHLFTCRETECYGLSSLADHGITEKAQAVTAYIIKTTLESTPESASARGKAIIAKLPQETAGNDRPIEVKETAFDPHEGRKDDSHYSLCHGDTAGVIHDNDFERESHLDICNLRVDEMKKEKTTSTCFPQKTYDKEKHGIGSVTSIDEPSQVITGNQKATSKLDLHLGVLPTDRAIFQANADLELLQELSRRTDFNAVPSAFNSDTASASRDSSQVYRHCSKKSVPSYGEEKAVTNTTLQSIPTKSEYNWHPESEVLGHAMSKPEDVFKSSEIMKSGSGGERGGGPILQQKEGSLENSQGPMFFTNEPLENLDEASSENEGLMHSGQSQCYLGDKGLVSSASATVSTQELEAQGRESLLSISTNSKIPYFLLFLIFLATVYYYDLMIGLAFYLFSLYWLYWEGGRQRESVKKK

binding [1]: no binding
B1: RGL, muscle-specific glycogen-targeting subunit of protein phosphatase 1 (wild type, full length) (protein, UniProt Q99MR9 1-1089)
chain: T2 sequence

binding [2]: no binding
B2: glycogen synthase (GS), skeletal muscle (enzyme, UniProt Q9Z1E4 1-738)
chain: T1 sequence
